# Data reported in the supplement of paper PMC12024529.
# Counter-ions that a name gives are not always drawn. The list shows a part of the results. Plates or batches differ in their baseline, so values are only roughly comparable.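 Wild-type or misfolding-prone missense mutant B-domain-deleted factor VIII, fused to Gaussia luciferase, is stably expressed in HEK293 lines. Each score is (mean triplicate-well luminescence minus DMSO mean) divided by DMSO standard deviation. Hits score at least 2; lower scores could stem from decreased secretion or poorer cell viability.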
# Columns and labels:
# HEK293 WT BDD-FVIII-Gluc = test: secreted FVIII-Gluc luciferase Z-score vs DMSO control; higher = more FVIII-Gluc secretion; conditions: 5 µM; 24 h
# [1] = tested on: HEK293 p.N1941S BDD-FVIII-Gluc; test: as above; conditions: 5 µM; 24 h
Compound,secreted FVIII-Gluc luciferase Z-score (HEK293 WT BDD-FVIII-Gluc),secreted FVIII-Gluc luciferase Z-score [1]
CCCCC(=O)N(Cc1ccc(-c2ccccc2-c2nnn[nH]2)cc1)[C@H](C(=O)O)C(C)C [Valsartan (Diovan)],inactive: -1.51,inactive: 1.42
CC(=O)OCC(=O)[C@@]1(O)CC[C@H]2[C@@H]3CCC4=CC(=O)C=C[C@]4(C)[C@H]3[C@@H](O)C[C@@]21C [Prednisolone acetate (Omnipred)],active: 6.13,active: 6.76
CCC[C@@H]1C[C@@H](C(=O)N[C@@H]([C@H]2O[C@H](SC)[C@H](O)[C@@H](O)[C@H]2O)[C@@H](C)O)N(C)C1 [Lincomycin hydrochloride (Lincocin)],inactive: -0.75,inactive: -0.969
C=C1c2cccc(O)c2C(O)=C2C(=O)[C@]3(O)C(O)=C(C(N)=O)C(=O)[C@@H](N(C)C)[C@@H]3[C@@H](O)[C@H]12 [Methacycline hydrochloride (Physiomycine)],active: 3.69,inactive: -5.9
CCN[C@H]1CN(CCCOC)S(=O)(=O)c2sc(S(N)(=O)=O)cc21 [Brinzolamide],inactive: -1.39,inactive: -1.52
Oc1ncnc2[nH]ncc12 [Allopurinol (Zyloprim)],inactive: -1.76,inactive: 0.928
